According to article doi:10.1101/2025.10.01.678329:
Where two headings read alike, the source gives them in different places. No constants are given. Whether binding was seen depends on the method and setting. Binding seen in cells or lysates may run through a third protein. Some results given as binding are weak or reduced against the parent protein; the word gives no strength. For part of these data: Where a sequence is shown, tags or fusion partners need not be part of it. Blank lines part the entries; values can stand above or below the binder they belong to.

Protein sequences, listed by entry. Tags and fused reporters are not part of them.
UniProt Q7Z2W4: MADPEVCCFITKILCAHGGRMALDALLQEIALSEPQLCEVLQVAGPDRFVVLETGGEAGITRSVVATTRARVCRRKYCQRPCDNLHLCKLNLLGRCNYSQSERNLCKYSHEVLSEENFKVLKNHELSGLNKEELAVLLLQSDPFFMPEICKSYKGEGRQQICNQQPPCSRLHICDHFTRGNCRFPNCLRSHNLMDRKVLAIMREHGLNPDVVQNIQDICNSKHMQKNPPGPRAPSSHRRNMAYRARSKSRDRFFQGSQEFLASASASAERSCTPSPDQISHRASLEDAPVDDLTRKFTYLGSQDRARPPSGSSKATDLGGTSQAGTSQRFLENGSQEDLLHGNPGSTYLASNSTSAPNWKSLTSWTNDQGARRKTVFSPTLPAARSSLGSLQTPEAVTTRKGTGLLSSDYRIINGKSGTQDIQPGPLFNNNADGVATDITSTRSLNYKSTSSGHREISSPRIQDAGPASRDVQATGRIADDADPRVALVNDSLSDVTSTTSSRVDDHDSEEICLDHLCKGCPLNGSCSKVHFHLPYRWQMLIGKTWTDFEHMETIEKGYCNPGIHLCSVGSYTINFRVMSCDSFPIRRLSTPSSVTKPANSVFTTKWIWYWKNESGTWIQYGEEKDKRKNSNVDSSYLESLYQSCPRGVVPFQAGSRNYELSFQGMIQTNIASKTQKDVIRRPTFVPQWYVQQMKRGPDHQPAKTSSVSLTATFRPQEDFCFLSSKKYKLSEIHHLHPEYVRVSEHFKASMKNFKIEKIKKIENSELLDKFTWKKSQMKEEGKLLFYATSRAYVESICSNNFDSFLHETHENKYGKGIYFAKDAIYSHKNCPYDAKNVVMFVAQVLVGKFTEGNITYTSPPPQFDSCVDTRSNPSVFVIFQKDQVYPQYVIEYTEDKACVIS

How the values were obtained:
[1] = target: T1, mouse RIG-I (mouse (Mus musculus)) (UniProt Q6Q899); assay: co-IP
T1 sequence: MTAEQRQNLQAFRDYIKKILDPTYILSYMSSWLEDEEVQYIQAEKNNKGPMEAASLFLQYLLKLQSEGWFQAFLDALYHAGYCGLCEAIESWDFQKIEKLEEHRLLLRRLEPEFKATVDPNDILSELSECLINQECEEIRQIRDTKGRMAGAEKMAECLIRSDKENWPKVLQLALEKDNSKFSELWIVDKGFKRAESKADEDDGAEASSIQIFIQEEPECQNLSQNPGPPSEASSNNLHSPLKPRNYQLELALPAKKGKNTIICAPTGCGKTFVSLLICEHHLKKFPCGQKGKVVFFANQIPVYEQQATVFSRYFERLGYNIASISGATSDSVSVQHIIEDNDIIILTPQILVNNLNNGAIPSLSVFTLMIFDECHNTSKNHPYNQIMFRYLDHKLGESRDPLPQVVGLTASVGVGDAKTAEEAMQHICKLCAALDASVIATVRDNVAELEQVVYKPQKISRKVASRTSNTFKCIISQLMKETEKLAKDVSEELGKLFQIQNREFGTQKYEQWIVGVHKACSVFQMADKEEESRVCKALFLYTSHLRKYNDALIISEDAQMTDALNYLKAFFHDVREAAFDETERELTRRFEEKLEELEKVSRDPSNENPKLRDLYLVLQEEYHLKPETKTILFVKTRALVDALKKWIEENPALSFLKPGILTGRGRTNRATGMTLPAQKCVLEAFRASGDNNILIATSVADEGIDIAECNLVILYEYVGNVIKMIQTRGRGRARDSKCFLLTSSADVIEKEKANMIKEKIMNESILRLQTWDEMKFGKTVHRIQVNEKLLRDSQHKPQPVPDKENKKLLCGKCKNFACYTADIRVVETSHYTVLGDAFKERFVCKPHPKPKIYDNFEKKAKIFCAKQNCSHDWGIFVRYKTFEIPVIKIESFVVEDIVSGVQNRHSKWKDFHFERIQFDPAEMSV

ZAP-L-FLAG (human) [2] = target: ZAP-L-FLAG (human) (UniProt Q7Z2W4); assay: co-IP
[3] = target: T2, 2'-5'-oligoadenylate synthetase 2 (OAS2)-FLAG (human) (UniProt P29728); assay: co-IP
T2 sequence: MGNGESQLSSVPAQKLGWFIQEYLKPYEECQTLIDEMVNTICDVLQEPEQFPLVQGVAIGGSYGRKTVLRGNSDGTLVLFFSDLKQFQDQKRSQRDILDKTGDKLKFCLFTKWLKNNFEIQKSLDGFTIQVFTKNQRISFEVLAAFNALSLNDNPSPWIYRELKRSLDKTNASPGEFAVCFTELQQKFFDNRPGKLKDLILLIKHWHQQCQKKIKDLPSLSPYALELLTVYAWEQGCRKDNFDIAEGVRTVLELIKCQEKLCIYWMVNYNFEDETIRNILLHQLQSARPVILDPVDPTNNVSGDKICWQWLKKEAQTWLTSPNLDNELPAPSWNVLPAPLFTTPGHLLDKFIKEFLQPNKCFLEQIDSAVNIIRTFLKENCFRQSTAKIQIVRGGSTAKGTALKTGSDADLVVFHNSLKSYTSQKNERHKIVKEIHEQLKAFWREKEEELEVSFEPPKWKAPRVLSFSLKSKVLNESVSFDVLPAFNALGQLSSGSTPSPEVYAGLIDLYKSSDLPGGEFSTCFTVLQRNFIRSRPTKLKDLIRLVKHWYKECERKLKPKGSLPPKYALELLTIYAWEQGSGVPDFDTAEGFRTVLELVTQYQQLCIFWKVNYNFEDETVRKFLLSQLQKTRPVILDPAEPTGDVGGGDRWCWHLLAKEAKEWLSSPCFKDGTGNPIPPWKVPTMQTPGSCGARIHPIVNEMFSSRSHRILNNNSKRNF

RIG-I-FLAG (human) = target: T3, RIG-I-FLAG (human) (UniProt O95786); assay: co-IP
T3 sequence: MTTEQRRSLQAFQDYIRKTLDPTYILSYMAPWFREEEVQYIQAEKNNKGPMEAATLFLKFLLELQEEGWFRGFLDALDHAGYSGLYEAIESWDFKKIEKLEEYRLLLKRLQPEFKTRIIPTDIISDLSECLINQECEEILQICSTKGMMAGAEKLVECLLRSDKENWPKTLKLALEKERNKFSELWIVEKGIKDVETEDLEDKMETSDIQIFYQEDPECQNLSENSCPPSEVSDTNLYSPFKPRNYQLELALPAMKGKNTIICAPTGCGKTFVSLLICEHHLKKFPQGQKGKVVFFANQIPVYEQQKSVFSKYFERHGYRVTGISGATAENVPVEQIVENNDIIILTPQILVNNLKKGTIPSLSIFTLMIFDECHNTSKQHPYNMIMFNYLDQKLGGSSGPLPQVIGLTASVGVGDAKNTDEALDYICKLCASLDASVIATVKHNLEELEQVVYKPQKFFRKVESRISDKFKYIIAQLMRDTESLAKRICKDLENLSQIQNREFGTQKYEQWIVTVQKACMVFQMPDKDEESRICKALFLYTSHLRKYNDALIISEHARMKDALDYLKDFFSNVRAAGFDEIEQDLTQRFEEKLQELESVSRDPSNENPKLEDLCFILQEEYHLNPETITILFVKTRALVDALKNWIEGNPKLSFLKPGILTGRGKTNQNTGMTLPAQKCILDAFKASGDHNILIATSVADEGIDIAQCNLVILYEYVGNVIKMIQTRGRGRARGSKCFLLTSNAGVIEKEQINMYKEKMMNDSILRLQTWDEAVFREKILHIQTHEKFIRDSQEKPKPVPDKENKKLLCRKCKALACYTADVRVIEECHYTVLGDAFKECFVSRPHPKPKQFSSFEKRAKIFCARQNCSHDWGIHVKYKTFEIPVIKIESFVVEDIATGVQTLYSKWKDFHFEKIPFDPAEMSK

ZAP-L-FLAG (human) [4] = target: ZAP-L-FLAG (human) (UniProt Q7Z2W4); assay: co-IP; remark: listed apart in the source
[5] = target: T4, Riplet-HA (human), Q8IUD6; assay: cross-linking; settings: remark: other sources report otherwise
T4 chain: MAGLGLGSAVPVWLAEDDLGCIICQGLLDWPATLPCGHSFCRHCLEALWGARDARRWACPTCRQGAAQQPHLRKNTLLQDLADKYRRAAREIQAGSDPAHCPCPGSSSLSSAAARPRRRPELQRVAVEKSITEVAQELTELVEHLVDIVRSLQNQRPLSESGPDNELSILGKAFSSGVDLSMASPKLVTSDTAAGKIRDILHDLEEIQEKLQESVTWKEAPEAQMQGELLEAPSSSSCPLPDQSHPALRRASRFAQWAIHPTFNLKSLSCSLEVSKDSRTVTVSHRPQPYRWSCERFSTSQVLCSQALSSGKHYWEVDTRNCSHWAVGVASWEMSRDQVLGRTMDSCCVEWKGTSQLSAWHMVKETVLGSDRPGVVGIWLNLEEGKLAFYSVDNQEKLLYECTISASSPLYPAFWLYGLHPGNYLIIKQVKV

binding [1]: binds
B1: mouse Riplet (enzyme, UniProt Q9CWS1 1-417)
chain: MAAVCSGNAVPVWLSEDDLSCIICQGLLDQPTTLPCGHSFCLRCLHDLWVSKRGAVDGCPWACPICRKGPLTKPKLHKNPLLQDLVDKYLQAAREVEAGSEPEPAPAPRSAPQVTVQKSTTNVIQELTDMVRQLVDDVKSLQTQRPNLGSGQDNAQGTPPTDSSSEGEHSLDSPKLVTFSISQKKIQEILHNLEEIQEKLQGSVPGRAPPRERVQEMTSSLCLLPDQRRPAPRKASHLSLWAISPTFDLRTLSYNLEVSNNSRRVTVSRGDLHTYHWSPQRFSISQVFCSQALSSGQKYWEVDTRNCSHWAIGVASWGMKRDGMLGRTMDSWCIEWRGPGQFSAWAKMKKTDLQSDLPEVVGVWLDLESGELAFYAVADHERLLYECEVSSSSPLHPAFWLYGLSPGNYLEIKQLNT

binding (ZAP-L-FLAG (human) [2]): no binding | binding [3]: binds | binding (RIG-I-FLAG (human)): binds | binding (ZAP-L-FLAG (human) [4]): no binding
B2: Riplet-HA (enzyme, UniProt Q8IUD6 1-432)
chain: MAGLGLGSAVPVWLAEDDLGCIICQGLLDWPATLPCGHSFCRHCLEALWGARDARRWACPTCRQGAAQQPHLRKNTLLQDLADKYRRAAREIQAGSDPAHCPCPGSSSLSSAAARPRRRPELQRVAVEKSITEVAQELTELVEHLVDIVRSLQNQRPLSESGPDNELSILGKAFSSGVDLSMASPKLVTSDTAAGKIRDILHDLEEIQEKLQESVTWKEAPEAQMQGELLEAPSSSSCPLPDQSHPALRRASRFAQWAIHPTFNLKSLSCSLEVSKDSRTVTVSHRPQPYRWSCERFSTSQVLCSQALSSGKHYWEVDTRNCSHWAVGVASWEMSRDQVLGRTMDSCCVEWKGTSQLSAWHMVKETVLGSDRPGVVGIWLNLEEGKLAFYSVDNQEKLLYECTISASSPLYPAFWLYGLHPGNYLIIKQVKV

binding [5]: no binding
B3: Riplet-HA, Q8IUD6 1-432 (enzyme)
chain: MAGLGLGSAVPVWLAEDDLGCIICQGLLDWPATLPCGHSFCRHCLEALWGARDARRWACPTCRQGAAQQPHLRKNTLLQDLADKYRRAAREIQAGSDPAHCPCPGSSSLSSAAARPRRRPELQRVAVEKSITEVAQELTELVEHLVDIVRSLQNQRPLSESGPDNELSILGKAFSSGVDLSMASPKLVTSDTAAGKIRDILHDLEEIQEKLQESVTWKEAPEAQMQGELLEAPSSSSCPLPDQSHPALRRASRFAQWAIHPTFNLKSLSCSLEVSKDSRTVTVSHRPQPYRWSCERFSTSQVLCSQALSSGKHYWEVDTRNCSHWAVGVASWEMSRDQVLGRTMDSCCVEWKGTSQLSAWHMVKETVLGSDRPGVVGIWLNLEEGKLAFYSVDNQEKLLYECTISASSPLYPAFWLYGLHPGNYLIIKQVKV
